Molecular target: T1, General amino-acid permease GAP1 (Saccharomyces cerevisiae) (UniProt P19145)
T1 sequence (whole entry): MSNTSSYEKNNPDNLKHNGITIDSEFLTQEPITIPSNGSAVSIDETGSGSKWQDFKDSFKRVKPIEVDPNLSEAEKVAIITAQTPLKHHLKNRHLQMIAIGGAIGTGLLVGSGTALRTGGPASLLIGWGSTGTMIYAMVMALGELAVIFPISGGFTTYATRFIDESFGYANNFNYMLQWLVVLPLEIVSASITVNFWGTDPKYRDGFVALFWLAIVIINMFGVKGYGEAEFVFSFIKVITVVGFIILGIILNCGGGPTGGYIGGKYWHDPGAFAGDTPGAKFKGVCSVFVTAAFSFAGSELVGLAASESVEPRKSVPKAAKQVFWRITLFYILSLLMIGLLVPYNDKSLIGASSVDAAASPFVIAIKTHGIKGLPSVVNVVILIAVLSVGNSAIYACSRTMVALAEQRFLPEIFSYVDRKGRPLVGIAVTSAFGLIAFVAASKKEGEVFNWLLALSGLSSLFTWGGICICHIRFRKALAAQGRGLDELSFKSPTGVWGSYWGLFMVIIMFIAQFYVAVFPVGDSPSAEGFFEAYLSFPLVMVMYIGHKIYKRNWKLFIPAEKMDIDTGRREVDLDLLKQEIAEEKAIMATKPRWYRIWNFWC
Conditions: sigma1278b, at 5 mM
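Also: amino acid uptake through Gap1 in nitrogen-starved wild-type yeast cells, measured after 60 s and expressed relative to L-citrulline.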

`CCC[C@H](NC(=O)OC(C)(C)C)C(=O)O` gave an inhibition of less than 15%.

Reference: ChEMBL document CHEMBL1221220, “Transport and signaling via the amino acid binding site of the yeast Gap1 amino acid transceptor” (Nat Chem Biol, 2009)
